# From article PMC8576121
# Sequences of proteins named here, by UniProt entry; tags and fusion partners are left off. A change or cut given only in a name is not applied to a line headed by its entry.
# UniProt D4GZ79: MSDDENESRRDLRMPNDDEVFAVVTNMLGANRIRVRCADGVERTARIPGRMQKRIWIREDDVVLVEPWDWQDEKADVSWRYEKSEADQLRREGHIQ
# Results are given in words; binding and its absence hold for the method and conditions named. Binding seen in cells or lysates may run through a third protein. Here binding means that the protein was enriched with, or labelled near, the bait; the list need not be complete. For part of these data: No binding means not detected with the bait.
# T1: translation initiation factor aIF2 alpha subunit (Haloferax volcanii) (UniProt D4GT46)
# T1 sequence: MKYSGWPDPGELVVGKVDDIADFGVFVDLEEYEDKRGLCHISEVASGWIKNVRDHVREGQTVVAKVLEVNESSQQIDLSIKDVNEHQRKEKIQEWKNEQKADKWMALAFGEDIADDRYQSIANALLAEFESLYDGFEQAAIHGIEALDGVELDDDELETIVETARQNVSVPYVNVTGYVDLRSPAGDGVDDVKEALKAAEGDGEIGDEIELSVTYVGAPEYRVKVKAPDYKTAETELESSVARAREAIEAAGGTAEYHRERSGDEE
# T2: translation initiation factor aIF2 beta subunit (aIF2β-1) (Haloferax volcanii) (UniProt D4GZP2)
# T2 sequence: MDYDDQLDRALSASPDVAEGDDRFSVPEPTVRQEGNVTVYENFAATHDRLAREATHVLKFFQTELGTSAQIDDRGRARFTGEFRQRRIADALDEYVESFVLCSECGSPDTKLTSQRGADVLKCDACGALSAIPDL
# T3: translation initiation factor aIF2 gamma subunit (Haloferax volcanii) (UniProt D4GTD4)
# T3 sequence: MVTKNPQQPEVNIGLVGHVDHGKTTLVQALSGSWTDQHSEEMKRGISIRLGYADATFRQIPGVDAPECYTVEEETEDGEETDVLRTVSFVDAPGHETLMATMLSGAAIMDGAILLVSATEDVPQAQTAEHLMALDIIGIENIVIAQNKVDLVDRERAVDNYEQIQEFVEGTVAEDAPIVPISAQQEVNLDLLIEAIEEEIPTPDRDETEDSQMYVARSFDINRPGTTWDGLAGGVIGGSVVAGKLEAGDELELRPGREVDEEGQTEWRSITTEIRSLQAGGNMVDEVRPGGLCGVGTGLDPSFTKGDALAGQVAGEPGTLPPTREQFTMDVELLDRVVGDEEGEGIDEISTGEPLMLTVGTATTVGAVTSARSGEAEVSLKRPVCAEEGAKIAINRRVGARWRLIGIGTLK
# T4: translation initiation factor aIF2 beta subunit / probable RNA-binding protein (aIF2β-2) (Haloferax volcanii) (UniProt D4GVV8)
# T4 sequence: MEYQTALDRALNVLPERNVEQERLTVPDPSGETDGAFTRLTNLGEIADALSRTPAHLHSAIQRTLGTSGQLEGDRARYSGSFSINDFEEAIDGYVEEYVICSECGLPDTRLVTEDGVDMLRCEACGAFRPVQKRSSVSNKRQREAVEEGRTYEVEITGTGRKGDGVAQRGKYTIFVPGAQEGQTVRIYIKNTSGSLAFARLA
# T5: eIF-2B domain protein (aIF2Bδ) (Haloferax volcanii) (UniProt D4GW08)
# T5 sequence: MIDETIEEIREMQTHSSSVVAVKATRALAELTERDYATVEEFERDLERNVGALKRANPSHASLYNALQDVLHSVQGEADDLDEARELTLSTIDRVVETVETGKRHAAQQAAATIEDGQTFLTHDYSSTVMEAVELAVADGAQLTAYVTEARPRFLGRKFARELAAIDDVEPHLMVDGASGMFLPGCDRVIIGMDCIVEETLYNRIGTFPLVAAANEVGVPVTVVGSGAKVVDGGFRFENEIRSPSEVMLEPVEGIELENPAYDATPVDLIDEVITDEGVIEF
# T6: DNA-directed RNA polymerase subunit Rpo2N (Haloferax volcanii) (UniProt D4GZX4)
# T6 sequence: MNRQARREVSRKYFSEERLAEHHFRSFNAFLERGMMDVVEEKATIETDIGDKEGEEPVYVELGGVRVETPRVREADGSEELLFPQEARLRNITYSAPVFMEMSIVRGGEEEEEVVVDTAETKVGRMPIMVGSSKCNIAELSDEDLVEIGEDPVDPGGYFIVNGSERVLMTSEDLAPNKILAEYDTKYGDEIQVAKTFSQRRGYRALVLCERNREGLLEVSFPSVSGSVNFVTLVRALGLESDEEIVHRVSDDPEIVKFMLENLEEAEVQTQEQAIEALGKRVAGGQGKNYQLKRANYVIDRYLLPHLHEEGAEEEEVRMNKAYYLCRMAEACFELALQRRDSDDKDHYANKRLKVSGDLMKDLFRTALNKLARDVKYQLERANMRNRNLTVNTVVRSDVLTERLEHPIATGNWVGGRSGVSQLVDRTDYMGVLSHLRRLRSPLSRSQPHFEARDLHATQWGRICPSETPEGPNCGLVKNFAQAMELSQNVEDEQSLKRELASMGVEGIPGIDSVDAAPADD
# Experiments:
# Experiment in all cases: affinity purification with mass spectrometry; N-His6 bait overproduced in H. volcanii; cytoplasmic extract on nickel chelating sepharose at room temperature in 2.1 M NaCl, 20 mM HEPES, 20 mM imidazole; four washes with 30 mM imidazole, elution with 700 mM imidazole; no RNase step, no cross-linking; co-isolated proteins identified by LC-MS/MS; three biological replicates; proteins found in the empty-vector or DHFR controls removed
# [1] = molecular target: T1, translation initiation factor aIF2 alpha subunit (Haloferax volcanii)
# [2] = molecular target: T2, translation initiation factor aIF2 beta subunit (aIF2β-1) (Haloferax volcanii)
# [3] = molecular target: T3, translation initiation factor aIF2 gamma subunit (Haloferax volcanii)
# [4] = molecular target: T4, translation initiation factor aIF2 beta subunit / probable RNA-binding protein (aIF2β-2) (Haloferax volcanii)
# [5] = molecular target: T5, eIF-2B domain protein (aIF2Bδ) (Haloferax volcanii)
# [6] = molecular target: T6, DNA-directed RNA polymerase subunit Rpo2N (Haloferax volcanii)
binding [1],binding [2],binding [3],binding [4],binding [5],binding [6],Molecule
no binding,no binding,no binding,no binding,,,translation initiation factor aIF-1A (aIF1A1) (from UniProt D4GZ79)
,,,,no binding,binds,"NUDIX family hydrolase/eIF-2B domain protein (protein, UniProt D4GTG3 1-413) MPHVATVFLRHDGRVLLTRRSDAVGTYQGRWAGVSGYVEGDPADAERDARRELAEEVGVRETDAELVRAGEPLTVTDEGREWTVHPFLFDARSRDIDTDEELAAVEWVHPTAIREREAVPGLWATYRRVAPAVETVADDETHGSTWISLRALEVLRDAAAEADSLEAVASVARRLRDARPNMAAVENRVNRVMAESDSDPESVRRRAEAAIDAAAEADDAAAARAAELIRERGVDRLATLSRSGTVLAALEAAEAAAVAVLVSESRPGGEGVGVAERLARDGRDVTLTTDAALPGLVAAGGADAVLLGADSVLASGGVVNKVGSLPAALAAARADVPVFAVCARDKVRGDDRFAGEDAGALYDGEAAIGTENPLFEVVPADSLSGVVTESGVLNAGDIGAVADEHAALAAWDD"
